In the test the target is MRE11 deletion construct, N-terminal region (Arabidopsis thaliana). Kind of test: two-hybrid; direct test after plasmid isolation and re-transformation into the yeast reporter strain AH109; MRE11 full length and deletion constructs against the TAF1 C-terminal region.

Among the data in article PMC4949998 are binding values, retold here.

No constants are given. Whether binding was seen depends on the method and setting.

B1: TAF1 C-terminal region isolated in the yeast two-hybrid screen (domain or fragment, UniProt Q8LRK9 1278-1919)
chain: LCRLLMQDEDQKKKKKKMKGVGEGMGSYPPPRPNIALQSGEPVRKANAMDKKPIAIQPDASFLVNESTIKDNRNVDSIIKTPKGKQVKENSNSLGQLKKVKILNENLKVFKEKKSARENFVCGACGQHGHMRTNKHCPRYRENTESQPEGIDMDKSAGKPSSSEPSGLPKLKPIKNSKAAPKSAMKTSVDEALKGDKLSSKTGGLPLKFRYGIPAGDLSDKPVSEAPGSSEQAVVSDIDTGIKSTSKISKLKISSKAKPKESKGESERRSHSLMPTFSRERGESESHKPSVSGQPLSSTERNQAASSRHTISIPRPSLSMDTDQAESRRPHLVIRPPTEREQPQKKLVIKRSKEMNDHDMSSLEESPRFESRKTKRMAELAGFQRQQSFRLSENSLERRPKEDRVWWEEEEISTGRHREVRARRDYDDMSVSEEPNEIAEIRRYEEVIRSEREEEERQKAKKKKKKKKLQPEIVEGYLEDYPPRKNDRRLSERGRNVRSRYVSDFERDGAEYAPQPKRRKKGEVGLANILERIVDTLRLKEEVSRLFLKPVSKKEAPDYLDIVENPMDLSTIRDKVRKIEYRNREQFRHDVWQIKYNAHLYNDGRNPGIPPLADQLLEICDYLLDDYEDQLKEAEKGIDPND
Turning to B1, the binding result is listed as “no binding”.
